In PubChem BioAssay AID2685 (National Center for Advancing Translational Sciences (NCATS), 2010):
The other results are listed elsewhere or left out. Shown are side measurements of this screen, not its main read-out; they come without a call. Most of these compounds were active or inconclusive in the main read-out, so they are no random draw. Words in brackets tell the shape of the fitted curve; partial curves, single points and poor fits give uncertain potencies.

Assay: qHTS Assay for Lipid Storage Modulators in Drosophila S3 Cells;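 as to cell number change: cells counted by Cell Tracker Red CMTPX staining in the red channel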
Settings: BODIPY lipid droplet fluorescence, 18-24 h; for cell number change: measured here: cell count max response, cells fed with added oleic acid
In short: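 Laser-scanning cytometry quantifies lipid droplet accumulation (500–530 nm total intensity; droplet/cell object ratio) in oleic acid-fed (400 uM added) Drosophila S3 cells treated with a concentration series. 20 uM Triacsin C defined 100% inhibition.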

[1] = measured here: cell number channel AC50, cells fed with added oleic acid
[2] = measured here: lipid fluorescence (Fed channel) AC50, cells fed with added oleic acid

Row | SMILES | cell number change [%] | AC50 [1] | AC50 [2]
1 | Cc1nnc2ccc(N3CCN(C)CC3)nn12 | 30 | 0.206 µM [rising, full curve, poor fit] | 
2 | Cc1nc2ccccc2c(=O)n1-c1cccc(C(F)(F)F)c1 | -20.7 |  | 6.51 µM [rising, single point]
3 | Cc1ccc(C(C)C)c(OCC(=O)N2CCN(CC(=O)N3CCOCC3)CC2)c1 | 7.07 |  | 2.06 µM [falling, partial curve, poor fit]
4 | Oc1ccc(/C=N/NP(=S)(c2ccccc2)c2ccccc2)c(O)c1O | 54.4 |  | 
5 | CCOc1ccc(-n2c(O)c(C=NCCCn3ccnc3)c(=O)[nH]c2=O)cc1 | 4.74 |  | 0.0326 µM [falling, full curve]
6 | CC1CCC(N2CCN(C(=O)COc3ccccc3)CC2)CC1 (stereo unspecified) | 8.87 |  | 29.1 µM [rising, single point]
7 | Clc1ccc(CCNCc2ccncc2)c(Cl)c1 | 31.2 | 32.6 µM [rising, single point] | 
8 | O=c1[nH]c(=O)n(Cc2ccco2)c(O)c1C=NCCCn1ccnc1 | -92.3 | 32.6 µM [falling, partial curve] | 
9 | COc1cc2c(cc1OC)C(C(=O)NCCC(C)C)C1CCCCN1C2=O (stereo unspecified) | -19.1 |  | 29.1 µM [falling, single point]
10 | Cc1cc(OC(C)C(=O)NCC(O)c2ccccc2)c2c3c(c(=O)oc2c1)CCCC3 (stereo unspecified) | -6.11 |  | 29.1 µM [rising, single point]
11 | CC(C)(O)C(=O)Nc1ccc([N+](=O)[O-])c(C(F)(F)F)c1 | -9.83 |  | 0.206 µM [rising, partial curve]
12 | FC(F)(F)/C(=N\P(=S)(N1CCOCC1)N1CCOCC1)N1CCOCC1 | -6.97 |  | 0.651 µM [falling, partial curve, poor fit]
13 | O=c1cccc2n1CC1CNCC2C1 (stereo unspecified) | -4.88 |  | 0.326 µM [falling, full curve, poor fit]
14 | CC(=NCc1ccco1)c1c(O)n(C)c(=O)n(C)c1=O | -4.68 |  | 16.4 µM [falling, single point]
15 | O=C(O)COc1ccccc1/C=C1\C(=O)NC(=O)N(CCC2=CCCCC2)C1=O | -21.4 |  | 4.11 µM [falling, full curve, poor fit]
16 | CCCCCCn1c(=O)c(C(=O)Nc2c(C)n(C)n(-c3ccccc3)c2=O)c(O)c2ccccc21 | 3.66 |  | 20.6 µM [rising, single point]
17 | O=C1CN=C(c2cccc(Br)c2)c2cc(Br)ccc2N1 | -40.7 | 11.6 µM [falling, partial curve] | 
18 | CN1[C@H]2CC[C@@H]1C(C(=O)N1CCOCC1)=C(O)C2 | -6.86 |  | 0.146 µM [falling, full curve, poor fit]
19 | O=c1[nH]c(=S)[nH]c(O)c1N=Nc1ccc2c(c1)OCCO2 | -13.1 |  | 29.1 µM [falling, partial curve, poor fit]
20 | Cc1c(C(=O)N2CCC3(CC2)OCCO3)oc2ccccc12 | 102 | 6.51 µM [falling, single point] | 23.1 µM [rising, single point]

Row | SMILES | cell number change [%] | AC50 [1] | AC50 [2]
21 | CCOc1cc(CNC(C)C(O)c2ccccc2)cc(Cl)c1OCC (stereo unspecified) | -27.6 |  | 14.6 µM [falling, single point]
22 | O=c1[nH]c(=S)[nH]c(O)c1CN1CCCCC1 | -27 | 0.092 µM [falling, full curve, poor fit] | 0.13 µM [falling, full curve, poor fit]
23 | COc1ccc2[nH]c3c(c2c1)CCN=C3C |  |  | 6.51 µM [rising, single point]
24 | CCc1ccccc1Cn1c(=O)oc2cccnc21 |  | 0.82 µM [falling, partial curve] | 
25 | CC(C)(C)NS(=O)(=O)c1ccc(OCC(=O)N2CCN(Cc3ccccc3)CC2)cc1 | -31.5 | 20.6 µM [falling, single point] | 13 µM [falling, partial curve]
26 | CCCCNC(=O)c1c(N)n(CCCOC)c2nc3ccccc3nc12 | -33.7 | 29.1 µM [falling, single point] | 1.3 µM [rising, partial curve, poor fit]
27 | Cc1cnc(-n2c(=S)[nH]c3ccccc3c2=O)s1 | 11.6 |  | 1.84 µM [rising, partial curve, poor fit]
28 | CCCCn1c(=O)c(C(=O)Nc2ccccn2)c(O)c2ccccc21 |  |  | 29.1 µM [rising, single point]
29 | COC(=O)C1=C(c2ccc(F)cc2OCc2ccccc2)C[C@@H]2CC[C@H]1N2C(=O)NCc1cccc(OC)c1 | -3.25 | 1.46 µM [falling, partial curve] | 18.4 µM [falling, partial curve]
30 | O=C(NC(=O)N1CCC2(CC1)OCCO2)c1ccc(Cl)cc1 | 18.5 |  | 
31 | COc1ccc(OC)c(-n2c(O)c(C=Nc3c(C)n(C)n(-c4ccccc4)c3=O)c(=O)[nH]c2=S)c1 |  | 0.82 µM [falling, full curve, poor fit] | 0.461 µM [falling, partial curve, poor fit]
32 | COC(=O)C1=C(c2ccc(OC)c(OC)c2)C[C@@H]2CC[C@H]1N2C(=O)NCCO | 15.3 |  | 0.00517 µM [rising, full curve, poor fit]
33 | COc1ccc(-n2c(O)c(C=NCCN3CCN(C(C)=O)CC3)c(=O)[nH]c2=S)cc1 | -18.1 |  | 6.51 µM [rising, single point]
34 | CCCC(C)n1[nH]c(=O)c2c1NC(=O)CSC2c1ccc(OC)cc1 (stereo unspecified) | 0.221 |  | 0.651 µM [falling, full curve, poor fit]
35 | Cc1cc2c(s1)NC(=O)CN=C2c1cccs1 | 46.6 | 0.82 µM [rising, full curve, poor fit] | 1.16 µM [rising, full curve]
36 | CN1C(=O)N(C)C(=O)C2(Cc3cc([N+](=O)[O-])ccc3N3CCN(C(=O)c4ccccc4)CC32)C1=O (stereo unspecified) | -26.7 |  | 6.51 µM [rising, partial curve]
37 | COc1cc(/C=C/c2nc3ccccc3c(=O)n2-c2cccc(O)c2)ccc1O | -25.4 |  | 20.6 µM [falling, partial curve, poor fit]
38 | Cc1c(N=Cc2c(O)n(C)c(=O)[nH]c2=O)c(=O)n(-c2ccccc2)n1C | -15.9 |  | 0.116 µM [falling, single point]
39 | CC(C)CC(NC(=O)C1CCCCC1)C(=O)N1CCC2(CC1)OCCO2 (stereo unspecified) | -14.2 |  | 
40 | O=C(NCc1cccnc1)C(Cl)(Cl)Cl |  | 0.651 µM [rising, single point] | 

Row | SMILES | cell number change [%] | AC50 [1] | AC50 [2]
41 | CC(=O)OC1CCC2(/C=N/O)C(=CCC3C4CCC(=O)C4(C)CCC32)C1 (stereo unspecified) | 5.87 |  | 
42 | Cc1cc(/C=C2\C(=O)NC(=O)N(c3cccc(Br)c3)C2=O)c(C)n1C | 4 |  | 3.66 µM [falling, single point]
43 | COc1ccc(CCN(C)C(=O)Cn2c(=O)oc3ccccc32)cc1OC |  |  | 2.91 µM [rising, single point]
44 | c1csc(CN2CCNCC2)c1 | 81.6 |  | 0.58 µM [rising, single point]
45 | Cc1cc(OC(C)C(=O)NCc2ccncc2)c2c3c(c(=O)oc2c1)CCCC3 (stereo unspecified) | -16.5 |  | 16.4 µM [falling, partial curve, poor fit]
46 | CC(C)Nc1ccc(Nc2ccccc2)cc1 | -46.5 | 32.6 µM [falling, single point] | 
47 | COC(=O)C1=C(c2ccc(F)cc2OCc2ccccc2)C[C@@H]2CC[C@H]1N2C(=O)NC1CCN(Cc2ccccc2)CC1 | -22.9 | 4.11 µM [falling, full curve, poor fit] | 
48 | CC1(C)CN(S(=O)(=O)OCC(Cl)(Cl)Cl)C(=O)N1 | 15.2 |  | 29.1 µM [rising, single point]
49 | COc1ccc(CCNCc2ccccc2F)cc1 | -20.2 | 3.26 µM [falling, full curve, poor fit] | 2.91 µM [falling, full curve, poor fit]
50 | N#CCCn1cc(C(=O)Nc2ccccc2Cl)c(-c2ccc(F)cc2)n1 | -25.2 | 4.11 µM [falling, full curve, poor fit] | 
51 | CCOc1ccc(C2C(C#N)=C(N)Oc3c2c(=O)oc2ccccc32)cc1 (stereo unspecified) | 2.59 |  | 0.731 µM [falling, single point]
52 | O=c1[nH]c(=S)[nH]c(O)c1C(c1ccccn1)c1c(O)[nH]c(=S)[nH]c1=O | -48.1 |  | 
53 | Cc1cccc(CN2CCN(Cc3ccc(Cl)cc3)CC2)c1 | -42.6 | 25.9 µM [falling, partial curve, poor fit] | 20.6 µM [falling, partial curve]
54 | CCN(CC)c1ccc(CNCCc2ccc(F)cc2)cc1 | -5.95 | 0.326 µM [falling, full curve, poor fit] | 0.103 µM [falling, full curve]
55 | Cc1cccn2c(NCC3CCCO3)c(C(C)C)nc12 (stereo unspecified) | 2.69 |  | 0.58 µM [rising, single point]
56 | O=C(/C=C/c1ccccc1)c1c(O)n(CCc2ccccc2)c(=O)[nH]c1=O | 6.33 |  | 
57 | CCC(=O)N1N=C(c2c(O)n(CCc3ccccc3)c(=O)[nH]c2=O)CC1c1ccc(OC)c(OC)c1 (stereo unspecified) | -12.6 | 0.259 µM [rising, single point] | 
58 | C/C(=N\NC(=O)c1ccccc1)c1c(O)n(Cc2ccccc2)c(=O)[nH]c1=O | 27.2 |  | 
59 | COC(=O)C1=C(c2ccc3ccccc3c2)C[C@@H]2CC[C@H]1N2C(=O)NC1CC1 | -35.4 | 8.2 µM [falling, full curve, poor fit] | 2.31 µM [falling, partial curve]

Some of the entries so far, with each value named.
CC(C)(C)NS(=O)(=O)c1ccc(OCC(=O)N2CCN(Cc3ccccc3)CC2)cc1
  cell number change [%]: -31.5
  AC50 [1]: 20.6 µM [falling, single point]
  AC50 [2]: 13 µM [falling, partial curve]
Cc1cccc(CN2CCN(Cc3ccc(Cl)cc3)CC2)c1
  cell number change [%]: -42.6
  AC50 [1]: 25.9 µM [falling, partial curve, poor fit]
  AC50 [2]: 20.6 µM [falling, partial curve]
CCC(=O)N1N=C(c2c(O)n(CCc3ccccc3)c(=O)[nH]c2=O)CC1c1ccc(OC)c(OC)c1 (stereo unspecified)
  cell number change [%]: -12.6
  AC50 [1]: 0.259 µM [rising, single point]
